Assay results taken from paper PMC7247563, “Glycosylation Tunes Neuroserpin Physiological and Pathological Properties” (International Journal of Molecular Sciences, 2020).
These are yes or no findings as the source states them, for the method shown. Some binding calls cover weakened binding; strength is not graded here.

Legend:
[1] = biological target: human glycosylated neuroserpin expressed in LEXSY (Leishmania tarentolae) (human) (UniProt Q99574); experiment: SEC; 63.8 uM NS or gNS in 10 mM Tris-HCl pH 8.0, 50 mM KCl, incubated at 45 °C; aliquots at different times run on a Superdex 200 Increase 10/300 GL column; heat-induced polymerisation; both purified
[2] = biological target: human glycosylated neuroserpin expressed in LEXSY (Leishmania tarentolae) (human) (UniProt Q99574); experiment: native gel or EMSA; aliquots of NS or gNS (63.8 uM) after different times at 45 °C; 7.5 % non-denaturing polyacrylamide gel, 90 V, 2 h, 4 °C, Coomassie stain; heat-induced polymerisation; both purified

B1: human glycosylated neuroserpin expressed in LEXSY (Leishmania tarentolae) (protein, UniProt Q99574 17-410)
chain: TGATFPEEAIADLSVNMYNRLRATGEDENILFSPLSIALAMGMMELGAQGSTQKEIRHSMGYDSLKNGEEFSFLKEFSNMVTAKESQYVMKIANSLFVQNGFHVNEEFLQMMKKYFNAAVNHVDFSQNVAVANYINKWVENNTNNLVKDLVSPRDFDAATYLALINAVYFKGNWKSQFRPENTRTFSFTKDDESEVQIPMMYQQGEFYYGEFSDGSNEAGGIYQVLEIPYEGDEISMMLVLSRQEVPLATLEPLVKAQLVEEWANSVKKQKVEVYLPRFTVEQEIDLKDVLKALGITEIFIKDANLTGLSDNKEIFLSKAIHKSFLEVNEEGSEAAAVSGMIAISRMAVLYPQVIVDHPFFFLIRNRRTGTILFMGRVMHPETMNTSGHDFEEL
modifications: N-linked glycans at N157 and N321
- binding [1]: binds weakly
- binding [2]: binds weakly
